No constants are given. Whether binding was seen depends on the method and setting. In cells and extracts the contact can be indirect.
Key:
[1] = target: mutant p53 V157F, endogenous in HS578T cells (human (endogenous in HS578T)) (UniProt P04637); assay: co-IP
[2] = target: mutant p53 R249S, endogenous in BT-549 cells (human (endogenous in BT-549)) (UniProt P04637); assay: co-IP

| binding [1] | binding [2] | Binder |
| --- | --- | --- |
| no binding | no binding | PITP membrane associated 2 (PITPNM2), endogenous (protein, UniProt Q9BZ72 1-1349) MIIKEYRIPLPMTVEEYRIAQLYMIQKKSRNETYGEGSGVEILENRPYTDGPGGSGQYTHKVYHVGMHIPSWFRSILPKAALRVVEESWNAYPYTRTRFTCPFVEKFSIDIETFYKTDAGENPDVFNLSPVEKNQLTIDFIDIVKDPVPHNEYKTEEDPKLFQSTKTQRGPLSENWIEEYKKQVFPIMCAYKLCKVEFRYWGMQSKIERFIHDTGLRRVMVRAHRQAWCWQDEWYGLSMENIRELEKEAQLMLSRKMAQFNEDGEEATELVKHEAVSDQTSGEPPEPSSSNGEPLVGRGLKKQWSTSSKSSRSSKRGASPSRHSISEWRMQSIARDSDESSDDEFFDAHEDLSDTEEMFPKDITKWSSNDLMDKIESPEPEDTQDGLYRQGAPEFRVASSVEQLNIIEDEVSQPLAAPPSKIHVLLLVLHGGTILDTGAGDPSSKKGDANTIANVFDTVMRVHYPSALGRLAIRLVPCPPVCSDAFALVSNLSPYSHDEGCLSSSQDHIPLAALPLLATSSPQYQEAVATVIQRANLAYGDFIKSQEGMTFNGQVCLIGDCVGGILAFDALCYSNQPVSESQSSSRRGSVVSMQDNDLLSPGILMNAAHCCGGGGGGGGGGGSSGGGGSSGGSSLESSRHLSRSNVDIPRSNGTEDPKRQLPRKRSDSSTYELDTIQQHQAFLSSLHASVLRTEPCSRHSSSSTMLDGTGALGRFDFEITDLFLFGCPLGLVLALRKTVIPALDVFQLRPACQQVYNLFHPADPSASRLEPLLERRFHALPPFSVPRYQRYPLGDGCSTLLADVLQTHNAAFQEHGAPSSPGTAPASRGFRRASEISIASQVSGMAESYTASSIAQKAPDALSHTPSVRRLSLLALPAPSPTTPGPHPPARKASPGLERAPGLPELDIGEVAAKWWGQKRIDYALYCPDALTAFPTVALPHLFHASYWESTDVVSFLLRQVMRHDNSSILELDGKEVSVFTPSKPREKWQRKRTHVKLRNVTANHRINDALANEDGPQVLTGRFMYGPLDMVTLTGEKVDVHIMTQPPSGEWLYLDTLVTNNSGRVSYTIPESHRLGVGVYPIKMVVRGDHTFADSYITVLPKGTEFVVFSIDGSFAASVSIMGSDPKVRAGAVDVVRHWQDLGYLIIYVTGRPDMQKQRVVAWLAQHNFPHGVVSFCDGLVHDPLRHKANFLKLLISELHLRVHAAYGSTKDVAVYSAISLSPMQIYIVGRPTKKLQQQCQFITDGYAAHLAQLKYSHRARPARNTATRMALRKGSFGLPGQGDFLRSRNHLLRTISAQPSGPSHRHERTQSQADGEQRGQRSMSVAAGCWGRAMTGRLEPGAAAGPK |
| no binding | no binding | PITP membrane associated 1 (PITPNM1), endogenous (protein, UniProt O00562 1-1244) MLIKEYHILLPMSLDEYQVAQLYMIQKKSREESSGEGSGVEILANRPYTDGPGGSGQYTHKVYHVGSHIPGWFRALLPKAALQVEEESWNAYPYTRTRYTCPFVEKFSIEIETYYLPDGGQQPNVFNLSGAERRQRILDTIDIVRDAVAPGEYKAEEDPRLYHSVKTGRGPLSDDWARTAAQTGPLMCAYKLCKVEFRYWGMQAKIEQFIHDVGLRRVMLRAHRQAWCWQDEWTELSMADIRALEEETARMLAQRMAKCNTGSEGSEAQPPGKPSTEARSAASNTGTPDGPEAPPGPDASPDASFGKQWSSSSRSSYSSQHGGAVSPQSLSEWRMQNIARDSENSSEEEFFDAHEGFSDSEEVFPKEMTKWNSNDFIDAFASPVEAEGTPEPGAEAAKGIEDGAQAPRDSEGLDGAGELGAEACAVHALFLILHSGNILDSGPGDANSKQADVQTLSSAFEAVTRIHFPEALGHVALRLVPCPPICAAAYALVSNLSPYSHDGDSLSRSQDHIPLAALPLLATSSSRYQGAVATVIARTNQAYSAFLRSPEGAGFCGQVALIGDGVGGILGFDALCHSANAGTGSRGSSRRGSMNNELLSPEFGPVRDPLADGVEGLGRGSPEPSALPPQRIPSDMASPEPEGSQNSLQAAPATTSSWEPRRASTAFCPPAASSEAPDGPSSTARLDFKVSGFFLFGSPLGLVLALRKTVMPALEAAQMRPACEQIYNLFHAADPCASRLEPLLAPKFQAIAPLTVPRYQKFPLGDGSSLLLADTLQTHSSLFLEELEMLVPSTPTSTSGAFWKGSELATDPPAQPAAPSTTSEVVKILERWWGTKRIDYSLYCPEALTAFPTVTLPHLFHASYWESADVVAFILRQVIEKERPQLAECEEPSIYSPAFPREKWQRKRTQVKIRNVTSNHRASDTVVCEGRPQVLSGRFMYGPLDVVTLTGEKVDVYIMTQPLSGKWIHFGTEVTNSSGRLTFPVPPERALGIGVYPVRMVVRGDHTYAECCLTVVARGTEAVVFSIDGSFTASVSIMGSDPKVRAGAVDVVRHWQDSGYLIVYVTGRPDMQKHRVVAWLSQHNFPHGVVSFCDGLTHDPLRQKAMFLQSLVQEVELNIVAGYGSPKDVAVYAALGLSPSQTYIVGRAVRKLQAQCQFLSDGYVAHLGQLEAGSHSHASSGPPRAALGKSSYGVAAPVDFLRKQSQLLRSRGPSQAEREGPGTPPTTLARGKARSISLKLDSEE |
| no binding | no binding | PITP cytoplasmic 1 (PITPNC1), endogenous (protein, UniProt Q9UKF7 1-332) MLLKEYRICMPLTVDEYKIGQLYMISKHSHEQSDRGEGVEVVQNEPFEDPHHGNGQFTEKRVYLNSKLPSWARAVVPKIFYVTEKAWNYYPYTITEYTCSFLPKFSIHIETKYEDNKGSNDTIFDNEAKDVEREVCFIDIACDEIPERYYKESEDPKHFKSEKTGRGQLREGWRDSHQPIMCSYKLVTVKFEVWGLQTRVEQFVHKVVRDILLIGHRQAFAWVDEWYDMTMDEVREFERATQEATNKKIGIFPPAISISSIPLLPSSVRSAPSSAPSTPLSTDAPEFLSVPKDRPRKKSAPETLTLPDPEKKATLNLPGMHSSDKPCRPKSE |

From article doi:10.1101/2023.05.08.539894
